In patent publication US8299048B2, “Hexahydrocyclopentyl[f]indazole sulfonamides and derivatives thereof as selective glucocorticoid receptor modulators” (Merck Sharp & Dohme Corp., priority 2008, dated 2012):
pIC50: −log10 of the molar value. Some of these results come from one statement about several compounds together. At least one structure is not confirmed: it was looked up by name or label, or the drawing left a doubt.

Columns and labels:
human GR = target: T1, human GR (Homo sapiens, UniProt P04150); experiment: Transrepression Assay (GITAR), TNFα-β-lactamase reporter in U937 cells; format: cell-based; set-up: U937 cells contain an endogenous glucocorticoid receptor (GR); endogenous in cells; host or cells: U937 cells stably transfected with the TNF-alpha promoter/beta-lactamase reporter; conditions: activity repressed by 100 nM dexamethasone alone set as 100%
T1 sequence (P04150 1-777): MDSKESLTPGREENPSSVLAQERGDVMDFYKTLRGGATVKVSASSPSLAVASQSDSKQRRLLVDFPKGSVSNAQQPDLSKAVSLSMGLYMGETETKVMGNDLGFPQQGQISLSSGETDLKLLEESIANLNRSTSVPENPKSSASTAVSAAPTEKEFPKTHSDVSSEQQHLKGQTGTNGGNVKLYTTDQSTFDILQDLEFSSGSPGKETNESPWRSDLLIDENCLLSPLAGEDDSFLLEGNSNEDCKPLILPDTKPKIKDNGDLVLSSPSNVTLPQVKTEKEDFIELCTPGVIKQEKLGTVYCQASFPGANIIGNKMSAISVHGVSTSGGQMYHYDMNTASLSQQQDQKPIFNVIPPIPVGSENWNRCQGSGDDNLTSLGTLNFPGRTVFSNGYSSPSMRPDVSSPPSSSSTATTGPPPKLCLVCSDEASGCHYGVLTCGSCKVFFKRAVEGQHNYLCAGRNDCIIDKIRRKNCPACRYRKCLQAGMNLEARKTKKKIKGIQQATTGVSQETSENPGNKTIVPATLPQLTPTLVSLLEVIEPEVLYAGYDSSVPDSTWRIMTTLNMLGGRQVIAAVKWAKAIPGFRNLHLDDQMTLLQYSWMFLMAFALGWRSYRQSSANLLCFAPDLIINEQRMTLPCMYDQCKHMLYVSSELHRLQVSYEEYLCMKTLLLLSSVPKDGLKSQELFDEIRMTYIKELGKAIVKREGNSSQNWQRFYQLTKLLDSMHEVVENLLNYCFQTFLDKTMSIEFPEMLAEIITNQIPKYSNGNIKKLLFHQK
From the text: This assay assesses the ability of test compounds to control transcription from the TNFα-β-lactamase reporter gene in U937 cells, a human myelomonocytic leukemia cell line that naturally expresses the human GR. The assay measures compound dependent-repression of the TNFa promoter linked to a reporter gene.
The human U937 cells that had been stablely transfected with the TNF-α promoter driving β-lactamase are used for this assay. U937 cells contain an endogenous glucocorticoid receptor (GR). Cells are maintained in RPMI 1640 Growth medium (Gibco Cat#11875-093) containing 25 mM HEPES, 10% FBS, 2 mM L-Glutamine, 1 mM Sodium pyruvate, 25 μg/ml Gentamicin (Gibco Cat#15710-064), 1:1000 2-Mercaptoethanol (Gibco Cat#21985-023) and 0.8 mg/ml G418 (Gibco Cat#10131-027). The density of the cells in the flask needs to be about 1×10^6−3×10^6/ml at the time of harvest. Usually, the cells are split to 1.2˜1.4×10^5/ml (1:10) 3 days prior to the assay. 50,000 cells/well are plated in 96 well black-walled plates the day of assay. Test compounds are added 10 μL/well, and cells are incubated at 37° C. for 30˜45 min. For assaying compounds, first dilute 1:10 in DMSO to make 1 mM, then further dilute 1:100 in medium to make 10× stock prior to adding to the cells. […]

glucocorticoid receptor = target: T2, glucocorticoid receptor (Homo sapiens, UniProt P04150); experiment: Ligand binding assay (GR BIND); conditions: displacement of 3H-DEX, MDA-MB-453 cell lysate, DEX as reference
T2 construct: endogenous in cells
T2 sequence (P04150 1-777): T1 sequence (P04150 1-777)
Experimental: • Materials: • Binding Buffer: TEGM (10 mM Tris-HCl, 1 mM EDTA, 10% glycerol, 1 mM beta-mecaptoethanol, 10 mM Sodium Molybdate, pH 7.2) • 50% HAP Slurry: Calbiochem Hydroxylapatite, Fast Flow, in 10 mM Tris, pH 8.0 and 1 mM EDTA. • Wash Buffer: 40 mM Tris, pH7.5, 100 mM KCl, 1 mM EDTA and 1 mM EGTA.
Phenol red-free Trypsin-EDTA is diluted in the same PBS1:10. The cell layers are rinsed with 1× Trypsin, extra Trypsin is poured out, and the cell layers are incubated at 37° C. for ˜2 min. The flask is tapped and checked for signs of cell detachment. Once the cells begin to slide off the flask, the complete media is added. The cells are counted at this point, then diluted to the appropriate concentration and split into flasks or dishes for further culturing (Usually 1:3 to 1:6 dilution).
When the cells are 70 to 85% confluent, they are detached as described above, and collected by centrifuging at 1000 g for 10 minutes at 4° C. […]
25 μL of ^3H-DEX (6 nM) trace and 25 μL compound solution are first mixed together, followed by addition of 50 μL receptor solution. […] The HAP pellet on the filter plate is incubated with 50 μL of MICROSCINT (Packard) scintillint for 30 minutes before being counted on the TopCount microscintillation counter (Packard). […] are calculated using DEX as a reference.

## C[C@]12Cc3cnn(-c4ccc(F)cc4)c3C=C1CC[C@@H]2CN(CCc1ccccn1)S(=O)(=O)Cc1cccnc1 [Example 1, N-{[(4αR,5S)-1-(4-Fluorophenyl)-4α-methyl-1,4,4α,5,6,7-hexahydrocyclopenta[f]indazol-5-yl]methyl}-1-pyridin-3-yl-N-(2-pyridin-2-ylethyl)methanesulfonamide]
Human GR
  maximal activity in the transrepression (GITAR) assay: greater than 5%
Glucocorticoid receptor
  pIC50: > 6.00
